No constants are given. Whether binding was seen depends on the method and setting. In cells and extracts the contact can be indirect. Here binding means that the protein was enriched with, or labelled near, the bait; the list need not be complete. Where a sequence is shown, tags or fusion partners need not be part of it.
Biological target: T1, GST-PDHA1 S293D (UniProt P08559)
T1 sequence: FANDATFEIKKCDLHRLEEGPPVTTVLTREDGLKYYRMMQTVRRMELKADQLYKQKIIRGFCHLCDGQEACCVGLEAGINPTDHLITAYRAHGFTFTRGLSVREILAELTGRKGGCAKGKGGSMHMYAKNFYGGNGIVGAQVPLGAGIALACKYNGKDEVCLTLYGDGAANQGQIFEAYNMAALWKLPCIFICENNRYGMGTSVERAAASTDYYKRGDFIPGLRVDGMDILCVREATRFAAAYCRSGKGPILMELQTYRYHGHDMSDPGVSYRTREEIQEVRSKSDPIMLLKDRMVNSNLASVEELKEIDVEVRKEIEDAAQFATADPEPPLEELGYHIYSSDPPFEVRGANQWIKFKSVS
Assay: affinity purification with mass spectrometry; purified GST-PDHA1 WT, S293D and S293A beads mixed with lysate of PC12 cells (NGF 100 ng/mL) overnight at 4 °C; SDS-PAGE; MALDI-TOF peptide mass fingerprinting; only the target purified

Chains of the proteins cited; added tags and fusions are not shown. Lines headed by an entry give the natural chain unless they say otherwise; changes in a name come on top. A line that says so, or that is headed by a name, gives the form on record, which may keep a tag or linker.
Pyruvate kinase M2 (PKM2), PC12 cells (P11980-2, form named): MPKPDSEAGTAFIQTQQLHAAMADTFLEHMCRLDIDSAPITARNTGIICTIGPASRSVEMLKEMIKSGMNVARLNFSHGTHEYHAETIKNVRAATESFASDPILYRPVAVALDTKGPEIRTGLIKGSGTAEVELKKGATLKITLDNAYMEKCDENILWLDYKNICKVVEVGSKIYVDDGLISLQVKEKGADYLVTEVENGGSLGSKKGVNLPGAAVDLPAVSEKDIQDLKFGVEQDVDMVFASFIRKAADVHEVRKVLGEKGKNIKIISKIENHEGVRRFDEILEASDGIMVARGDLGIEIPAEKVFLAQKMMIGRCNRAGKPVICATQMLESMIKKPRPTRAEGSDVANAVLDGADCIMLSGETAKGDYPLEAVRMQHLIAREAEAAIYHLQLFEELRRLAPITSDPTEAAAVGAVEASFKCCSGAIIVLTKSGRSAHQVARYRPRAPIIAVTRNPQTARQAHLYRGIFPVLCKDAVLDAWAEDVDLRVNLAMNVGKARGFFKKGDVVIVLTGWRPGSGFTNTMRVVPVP

Pyruvate kinase M2 (PKM2), PC12 cells (from UniProt P11980-2 1-531)
binding: binds

Source: publication PMC9220252
